The list is a part of this screen's results and no random one: it is rich in T/C values a quarter to a half above the control, in often repeated tests (any T/C) and in doses without a T/C. Other doses and runs of a compound stand elsewhere. T/C: endpoint of the treated group in % of that of the vehicle group. Schedules are NCI's codes, taken here to give the interval after Q, in days (D) or hours (H), and the number of doses after X. Some values lie below zero, which means that the treated tumours became smaller. Some doses were run more than once; the values are given in rising order. Some T/C values are followed by the survivors on the day toxicity was checked, most often the fifth; without a count, all were alive then. Some doses have a count of surviving animals in place of a T/C: the source files T/C as zero there, which appears to mark a toxic dose or a test without result, not a measured value. Survivors were counted at the toxicity check, usually on the fifth day, unless a day is given; later deaths do not show.
System: nude mice, A549 intrarenal xenograft, tumor weight change
Assay: NCI In Vivo Anticancer Drug Screen. Data for tumor model A549 Human Adenocarcinoma of Lung with characteristics of Type II Alveolar Epithelial cells (intrarenal inoculation) in NU/NU BALB/C (nude) mice
Settings: T/C endpoint: mean tumor weight change, schedule: Q04DX003 (ip), higher T/C = larger tumour; for T/C: evaluated on day 12
Experimental: The antitumor activity of compounds was measured in mice bearing transplantable tumors. Survival or tumor size were measured and the results are expressed as the measurement made in the treated group (T) divided by the measurement made in the vehicle treated control group (C). The tumor model used in this assay is A549 Human Adenocarcinoma of Lung with characteristics of Type II Alveolar Epithelial cells (intrarenal inoculation) in NU/NU BALB/C (nude) mice

[1] = dose: 50.0 mg/kg/injection, vehicle: saline with Tween-80
[2] = dose: 100.0 mg/kg/injection, vehicle: saline with Tween-80
[3] = dose: 200.0 mg/kg/injection, vehicle: saline with Tween-80
[4] = dose: 1200.0 mg/kg/injection, vehicle: Klucel (hydroxypropylcellulose) (HPC)
[5] = dose: 150.0 mg/kg/injection, vehicle: water
[6] = dose: 300.0 mg/kg/injection, vehicle: water
[7] = dose: 150.0 mg/kg/injection, vehicle: saline with Tween-80
[8] = dose: 600.0 mg/kg/injection, vehicle: saline with Tween-80
[9] = dose: 1200.0 mg/kg/injection, vehicle: saline with Tween-80
[10] = dose: 800.0 mg/kg/injection, vehicle: saline with Tween-80
[11] = dose: 400.0 mg/kg/injection, vehicle: saline
[12] = dose: 400.0 mg/kg/injection, vehicle: saline with Tween-80

**Q.** Which results are given for `C[n+]1c(-c2ccc(NC(=O)c3ccc(C(=O)Nc4ccc(-c5cn6ccccc6[n+]5C)cc4)cc3)cc2)cn2ccccc21`?
**A.** survivor count [1]: 2 of 6 on day 12; survivor count [2]: 0 of 6 on day 12; survivor count [3]: 0 of 6 on day 12

**Q.** `NNC(=O)c1ccncc1` was tested. Which survivor count (dose: 300.0 mg/kg/injection, vehicle: saline) did it give?
**A.** The survivor count was 0 of 6 on day 12.

**Q.** Which results are given for `O=C1CC2(C(=O)N1CN1CCOCC1)c1ccccc1-c1ccccc12`?
**A.** survivor count (dose: 600.0 mg/kg/injection, vehicle: Klucel (hydroxypropylcellulose) (HPC)): 0 of 6 on day 12; survivor count (dose: 1000.0 mg/kg/injection, vehicle: Klucel (hydroxypropylcellulose) (HPC)): 0 of 6 on day 12; survivor count [4]: 0 of 6 on day 12

**Q.** How did the survivor count (dose: 50.0 mg/kg/injection, vehicle: DMSO) turn out when `c1ccc2[nH]c(CN(CCN(Cc3nc4ccccc4[nH]3)Cc3nc4ccccc4[nH]3)Cc3nc4ccccc4[nH]3)nc2c1` was run?
**A.** Its survivor count is 1 of 6 on day 12.

**Q.** Which survivor count (dose: 75.0 mg/kg/injection, vehicle: distilled water + Tween-80) does the source give for `c1ccc2c3c(c4c(c2c1)CN(C1CCCCC1)CO4)OCN(C1CCCCC1)C3` here?
**A.** The survivor count was 2 of 6 on day 12.

**Q.** What about the survivor count (dose: 150.0 mg/kg/injection, vehicle: distilled water + Tween-80) of the same molecule?
**A.** Its survivor count is 1 of 6 on day 12.

**Q.** What about the survivor count (dose: 300.0 mg/kg/injection, vehicle: distilled water + Tween-80) of the same molecule?
**A.** The survivor count was 0 of 6 on day 12.

**Q.** Which results are given for `Oc1cccc2ccccc12`?
**A.** T/C [5]: 127 % of control; survivor count [6]: 1 of 6 on day 12

**Q.** Which survivor count [5] does the source give for `COC(=O)NC1C(C)OC(OC2C/C=C(/C)C3C=CC4C(OC5CC(OC6CC(OC7CC(O)C(O)C(C)O7)C(OC7CC(O)C(OC)C(C)O7)C(C)O6)C(O)C(C)O5)C(C)CC(C)C4C3(C)/C(O)=C3\C(=O)OC4(CC(C)C(CO)=CC4/C=C\2C)C3=O)CC1(C)[N+](=O)[O-]` (stereo not given) here?
**A.** Its survivor count is 1 of 6 on day 12.

**Q.** And the survivor count [6]?
**A.** Its survivor count is 0 of 6 on day 12.

**Q.** What about the survivor count (dose: 600.0 mg/kg/injection, vehicle: water) of the same molecule?
**A.** The survivor count was 0 of 6 on day 12.

**Q.** With `Nc1ccn([C@@H](C=O)C[C@@H](C=O)CO)c(=O)n1` as the molecule, how does the T/C [7] read?
**A.** Its T/C is 141 % of control.

**Q.** What does the source list for `CC1Oc2cc3c(-c4c(O)cc(O)c5c(O)c6c(cc45)OC(C)C(C)C6=O)c(O)cc(O)c3c(O)c2C(=O)C1C` (stereo not given)?
**A.** T/C (dose: 3.0 mg/kg/injection, vehicle: suspension in saline): 126 % of control; survivor count (dose: 12.0 mg/kg/injection, vehicle: suspension in saline): 1 of 6 on day 12

**Q.** With `Cc1cc(NC(=S)SCc2ccc3c(c2)OCO3)ccc1Cl` as the molecule, how does the T/C (dose: 150.0 mg/kg/injection, vehicle: Klucel (hydroxypropylcellulose) (HPC)) read?
**A.** The T/C was 125 % of control.

**Q.** And the survivor count (dose: 900.0 mg/kg/injection, vehicle: Klucel (hydroxypropylcellulose) (HPC))?
**A.** The survivor count was 0 of 6 on day 12.

**Q.** Which results are given for `CCN(CC)c1ccc2[nH]c3c(C(N)=O)cc(=O)c(=O)c=3oc2c1`?
**A.** survivor count [8]: 0 of 6 on day 12; survivor count [9]: 0 of 6 on day 12

**Q.** `CN(C)N=Nc1ccc(C(N)=O)cc1` was tested. Which survivor count [8] did it give?
**A.** Its survivor count is 0 of 6 on day 12.

**Q.** With `CCOC(=O)/N=[N+](\[O-])c1ccccc1` as the molecule, how does the survivor count [2] read?
**A.** Its survivor count is 0 of 6 on day 12.

**Q.** How did the survivor count [10] turn out when `COc1ccc2oc3c(ccc[n+]3C)c(=O)c2c1` was run?
**A.** The survivor count was 3 of 6 on day 12.

**Q.** `CCOC1NC(=O)Oc2ccccc21` (stereo not given) was tested. Which survivor count (dose: 300.0 mg/kg/injection, vehicle: Klucel (hydroxypropylcellulose) (HPC)) did it give?
**A.** The survivor count was 2 of 6 on day 12.

**Q.** And the survivor count [4]?
**A.** Its survivor count is 0 of 6 on day 12.

**Q.** For `O=C([O][Bi]([c]1ccccc1)[c]1ccccc1)c1ccccc1`, which T/C (dose: 100.0 mg/kg/injection, vehicle: Klucel (hydroxypropylcellulose) (HPC)) is on record?
**A.** The T/C was 145 % of control.

**Q.** How did the T/C [1] turn out when `Cc1ccc(C(=Nc2ccccc2)N=P(c2ccccc2)(c2ccccc2)c2ccccc2)cc1` was run?
**A.** The T/C was 126 % of control.

**Q.** And the survivor count [3]?
**A.** Its survivor count is 3 of 6 on day 12.

**Q.** With `CN=C(NC)c1ccc(NC(=O)/C=C\c2ccc(/C=C/C(=O)Nc3ccc(C(=NC)NC)cc3)cc2)cc1` as the molecule, how does the survivor count (dose: 25.0 mg/kg/injection, vehicle: Klucel (hydroxypropylcellulose) (HPC)) read?
**A.** Its survivor count is 0 of 6 on day 12.

**Q.** For `COc1ccc(C=C(C(=O)CCN(C)C)C(=O)CCN(C)C)cc1`, which T/C (dose: 100.0 mg/kg/injection, vehicle: saline) is on record?
**A.** Its T/C is 125 % of control.

**Q.** What about the survivor count [11] of the same molecule?
**A.** The survivor count was 0 of 6 on day 12.

**Q.** With `CCC(=O)[O][Bi]([c]1ccccc1)[c]1ccccc1` as the molecule, how does the survivor count (dose: 50.0 mg/kg/injection, vehicle: Klucel (hydroxypropylcellulose) (HPC)) read?
**A.** Its survivor count is 0 of 6 on day 12.

**Q.** `C=C(CO)C(=O)OC1CC(=C)C2CC(O)C(=C)C2[C@H]2OC(=O)C(=C)C12` (stereo not given in full) was tested. Which survivor count (dose: 17.5 mg/kg/injection, vehicle: saline + alcohol) did it give?
**A.** The survivor count was 1 of 6 on day 12.

**Q.** Which results are given for `Cc1nc(C(Cl)(Cl)Cl)[nH]c(=O)c1SCCO`?
**A.** T/C (dose: 600.0 mg/kg/injection, vehicle: distilled water + Tween-80 + alcohol): 141 % of control [4 of 6 alive on day 12]; survivor count (dose: 1200.0 mg/kg/injection, vehicle: distilled water + Tween-80 + alcohol): 0 of 6 on day 12; survivor count (dose: 1200.0 mg/kg/injection, vehicle: distilled water + alcohol): 0 of 6 on day 12

**Q.** Which results are given for `O=C1CN(CO)C(=O)N1CO`?
**A.** survivor count [11]: 1 of 5 on day 12; survivor count (dose: 800.0 mg/kg/injection, vehicle: saline): 0 of 6 on day 12

**Q.** `CNC(=O)N(C)N=NCCCl` was tested. Which survivor count [12] did it give?
**A.** Its survivor count is 3 of 6 on day 12.

**Q.** What about the survivor count [10] of the same molecule?
**A.** Its survivor count is 0 of 6 on day 12.

**Q.** For `N[C@@H](Cc1ccc(N(CCCl)CCCl)cc1)C(=O)O`, which T/C (dose: 4.0 mg/kg/injection, vehicle: saline) is on record?
**A.** Its T/C is -24, -2, 22, 27 % of control.

**Q.** And the T/C (dose: 6.0 mg/kg/injection, vehicle: saline)?
**A.** The T/C was -43, -30, 12, 24 % of control.

**Q.** What about the T/C (dose: 9.0 mg/kg/injection, vehicle: saline) of the same molecule?
**A.** The T/C was -52 [5 of 6 alive on day 12], -13, 8, 11 % of control.

**Q.** For `S=C(NCNC(=S)c1ccncc1)c1ccncc1`, which survivor count [9] is on record?
**A.** Its survivor count is 0 of 6 on day 12.

**Q.** `Cc1ccoc1` was tested. Which survivor count [12] did it give?
**A.** Its survivor count is 0 of 6 on day 12.

**Q.** Which survivor count [7] does the source give for `O=C1CN(CCN2CC(=O)N(CN3CCOCC3)C(=O)C2)CC(=O)N1CN1CCOCC1` here?
**A.** The survivor count was 2 of 6 on day 12.

**Q.** What about the survivor count (dose: 300.0 mg/kg/injection, vehicle: saline with Tween-80) of the same molecule?
**A.** Its survivor count is 1 of 6 on day 12.

Source: PubChem BioAssay AID278 (DTP/NCI, 2004)
